In PMC4860851 (Cell Discovery, 2015):
These are yes or no findings as the source states them, for the method shown. Some entries that bind do so weakly or less than the wild type.

The chains behind the UniProt entries cited, without tags or fusion partners. Residues count along the entry.
UniProt P03452, residues 18-565: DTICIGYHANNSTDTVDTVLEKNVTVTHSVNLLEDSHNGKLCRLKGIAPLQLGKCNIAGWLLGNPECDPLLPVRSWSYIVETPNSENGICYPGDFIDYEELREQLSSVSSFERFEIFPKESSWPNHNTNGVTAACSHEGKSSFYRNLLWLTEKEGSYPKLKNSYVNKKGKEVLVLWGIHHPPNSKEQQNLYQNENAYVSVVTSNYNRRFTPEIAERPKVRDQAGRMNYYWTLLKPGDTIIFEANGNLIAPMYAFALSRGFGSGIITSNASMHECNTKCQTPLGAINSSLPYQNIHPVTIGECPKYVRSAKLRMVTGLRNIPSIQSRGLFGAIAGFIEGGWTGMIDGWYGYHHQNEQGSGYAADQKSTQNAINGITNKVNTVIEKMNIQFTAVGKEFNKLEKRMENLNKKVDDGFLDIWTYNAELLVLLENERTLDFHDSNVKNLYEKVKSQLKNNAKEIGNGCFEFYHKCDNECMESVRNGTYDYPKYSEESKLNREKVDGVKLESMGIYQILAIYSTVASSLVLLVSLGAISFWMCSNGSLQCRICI
UniProt Q8C567, residues 17-255: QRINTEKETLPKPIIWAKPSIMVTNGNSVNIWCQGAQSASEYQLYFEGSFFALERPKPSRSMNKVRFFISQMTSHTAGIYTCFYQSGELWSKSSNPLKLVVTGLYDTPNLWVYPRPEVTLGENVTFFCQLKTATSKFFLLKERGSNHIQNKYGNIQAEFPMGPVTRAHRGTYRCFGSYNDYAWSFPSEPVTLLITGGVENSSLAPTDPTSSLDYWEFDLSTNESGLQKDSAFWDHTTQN

Target: HA of human influenza virus A/Puerto Rico/8/34 H1N1 (PR8), on the virus and on PR8-treated EL4 cells (influenza A/Puerto Rico/8/34 H1N1 (PR8)) (UniProt P03452)
Assay: flow cytometry on cells; only the binder purified

Substance | binding
Ncr1 Ig fusion protein (extracellular part of mouse Ncr1 fused to human IgG1) (from UniProt Q8C567 17-255) (Fc fusion) | binds
Ncr1 Ig grown in medium containing tunicamycin (from UniProt Q8C567 17-255) (Fc fusion) | binds
